{"source": "PubChem BioAssay AID602196 (INSERM, 2012)", "test": "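Modifiers of cisplatin sensitivity in A549 cells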", "cells": "human A549 lung cancer cells", "reagent": "siRNA pair against human genes", "time to read-out": "48 h transfection before cisplatin; time from cisplatin to read-out not stated", "challenge": "cisplatin at a dose killing half of control-siRNA cells; exact dose and duration not given", "measured": "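Shift in cisplatin death relative to control siRNA, from -50 (all cells die) to +50 (no cells die); siRNAs harmful on their own scored 0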", "scale": "two-siRNA summed score (-2 to +2): higher = both siRNAs protect from cisplatin killing; -2 means both sensitise", "rule for the call": "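siRNAs harmful alone (LDH or WST-1) get 0; others get +1 for less and -1 for more cisplatin killing; genes are active when the two siRNAs give the same sign, summing to ±2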", "meaning of the calls": "active = both siRNAs shift cisplatin killing the same way; inactive = no consistent shift, or siRNA harmful alone", "note": "Here is an unselected part of about 23,000 reagents. 455 of all reagents (2%) were called active. 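Active includes both protection and sensitisation; some change values fall well beyond the stated -50 to +50 range.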 Unmarked entries are inactive. Further read-outs or replicates are left out here. The record does not give: the amount of reagent."}
{"gene knocked down":"TFR2","PubChem SID":"SID131514030","two-siRNA summed score (-2 to +2)":0}
{"gene knocked down":"LOC388735","PubChem SID":"SID131511983","two-siRNA summed score (-2 to +2)":0}
{"gene knocked down":"CASP6","PubChem SID":"SID131518039","two-siRNA summed score (-2 to +2)":0}
{"gene knocked down":"PTK2","PubChem SID":"SID131522068","two-siRNA summed score (-2 to +2)":1}
{"gene knocked down":"ZNF440","PubChem SID":"SID131516404","two-siRNA summed score (-2 to +2)":0}
{"gene knocked down":"MED12L","PubChem SID":"SID131511928","two-siRNA summed score (-2 to +2)":0}
{"gene knocked down":"LOC388957","PubChem SID":"SID131502117","two-siRNA summed score (-2 to +2)":-1}
{"gene knocked down":"LINC00242","PubChem SID":"SID131522300","two-siRNA summed score (-2 to +2)":1}
{"gene knocked down":"USP12","PubChem SID":"SID131521433","two-siRNA summed score (-2 to +2)":1}
{"gene knocked down":"NOP16","PubChem SID":"SID131500432","two-siRNA summed score (-2 to +2)":-1}

Ordered by “two-siRNA summed score (-2 to +2)” (lowest first): some entries from above.
{"gene knocked down":"LOC388957","PubChem SID":"SID131502117","two-siRNA summed score (-2 to +2)":-1}
{"gene knocked down":"LINC00242","PubChem SID":"SID131522300","two-siRNA summed score (-2 to +2)":1}

The results go on.
{"gene knocked down":"GORASP1","PubChem SID":"SID131509815","two-siRNA summed score (-2 to +2)":0}
{"gene knocked down":"PHACTR3","PubChem SID":"SID131517297","two-siRNA summed score (-2 to +2)":0}
{"gene knocked down":"EIF2S2","PubChem SID":"SID131505036","two-siRNA summed score (-2 to +2)":0}
{"gene knocked down":"GPR6","PubChem SID":"SID131506330","two-siRNA summed score (-2 to +2)":0}
{"gene knocked down":"CEACAM6","PubChem SID":"SID131522742","two-siRNA summed score (-2 to +2)":1}
{"gene knocked down":"TPRG1L","PubChem SID":"SID131508993","two-siRNA summed score (-2 to +2)":0}
{"gene knocked down":"PCOLCE","PubChem SID":"SID131522511","two-siRNA summed score (-2 to +2)":1}
{"gene knocked down":"FILIP1","PubChem SID":"SID131512859","two-siRNA summed score (-2 to +2)":0}
{"gene knocked down":"UTP23","PubChem SID":"SID131520939","two-siRNA summed score (-2 to +2)":1}
{"gene knocked down":"LOC440776","PubChem SID":"SID131522421","two-siRNA summed score (-2 to +2)":1}
{"gene knocked down":"GIMAP8","PubChem SID":"SID131520982","two-siRNA summed score (-2 to +2)":1}
